Data published in publication PMC8490982.
These are yes or no findings as the source states them, for the method shown. In cells and extracts the contact can be indirect. Some binding calls cover weakened binding; strength is not graded here.

The chains behind the UniProt entries cited, without tags or fusion partners.
UniProt Q9H8M2: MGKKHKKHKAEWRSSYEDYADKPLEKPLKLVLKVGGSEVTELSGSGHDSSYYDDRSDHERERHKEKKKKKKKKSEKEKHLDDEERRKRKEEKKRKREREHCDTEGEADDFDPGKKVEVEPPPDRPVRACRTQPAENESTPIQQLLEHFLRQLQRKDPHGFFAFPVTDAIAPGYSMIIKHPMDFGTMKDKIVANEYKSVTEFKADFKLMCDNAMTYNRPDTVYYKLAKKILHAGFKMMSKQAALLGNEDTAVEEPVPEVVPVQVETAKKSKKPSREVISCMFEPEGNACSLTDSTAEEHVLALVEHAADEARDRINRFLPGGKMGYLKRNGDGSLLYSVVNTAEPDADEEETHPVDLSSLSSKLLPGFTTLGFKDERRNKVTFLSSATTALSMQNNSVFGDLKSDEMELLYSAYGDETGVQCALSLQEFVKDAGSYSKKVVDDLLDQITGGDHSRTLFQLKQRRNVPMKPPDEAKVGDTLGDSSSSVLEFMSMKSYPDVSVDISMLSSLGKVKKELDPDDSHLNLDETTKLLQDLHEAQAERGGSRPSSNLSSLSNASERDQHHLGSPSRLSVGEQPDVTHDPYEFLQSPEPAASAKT
UniProt Q9NZM4: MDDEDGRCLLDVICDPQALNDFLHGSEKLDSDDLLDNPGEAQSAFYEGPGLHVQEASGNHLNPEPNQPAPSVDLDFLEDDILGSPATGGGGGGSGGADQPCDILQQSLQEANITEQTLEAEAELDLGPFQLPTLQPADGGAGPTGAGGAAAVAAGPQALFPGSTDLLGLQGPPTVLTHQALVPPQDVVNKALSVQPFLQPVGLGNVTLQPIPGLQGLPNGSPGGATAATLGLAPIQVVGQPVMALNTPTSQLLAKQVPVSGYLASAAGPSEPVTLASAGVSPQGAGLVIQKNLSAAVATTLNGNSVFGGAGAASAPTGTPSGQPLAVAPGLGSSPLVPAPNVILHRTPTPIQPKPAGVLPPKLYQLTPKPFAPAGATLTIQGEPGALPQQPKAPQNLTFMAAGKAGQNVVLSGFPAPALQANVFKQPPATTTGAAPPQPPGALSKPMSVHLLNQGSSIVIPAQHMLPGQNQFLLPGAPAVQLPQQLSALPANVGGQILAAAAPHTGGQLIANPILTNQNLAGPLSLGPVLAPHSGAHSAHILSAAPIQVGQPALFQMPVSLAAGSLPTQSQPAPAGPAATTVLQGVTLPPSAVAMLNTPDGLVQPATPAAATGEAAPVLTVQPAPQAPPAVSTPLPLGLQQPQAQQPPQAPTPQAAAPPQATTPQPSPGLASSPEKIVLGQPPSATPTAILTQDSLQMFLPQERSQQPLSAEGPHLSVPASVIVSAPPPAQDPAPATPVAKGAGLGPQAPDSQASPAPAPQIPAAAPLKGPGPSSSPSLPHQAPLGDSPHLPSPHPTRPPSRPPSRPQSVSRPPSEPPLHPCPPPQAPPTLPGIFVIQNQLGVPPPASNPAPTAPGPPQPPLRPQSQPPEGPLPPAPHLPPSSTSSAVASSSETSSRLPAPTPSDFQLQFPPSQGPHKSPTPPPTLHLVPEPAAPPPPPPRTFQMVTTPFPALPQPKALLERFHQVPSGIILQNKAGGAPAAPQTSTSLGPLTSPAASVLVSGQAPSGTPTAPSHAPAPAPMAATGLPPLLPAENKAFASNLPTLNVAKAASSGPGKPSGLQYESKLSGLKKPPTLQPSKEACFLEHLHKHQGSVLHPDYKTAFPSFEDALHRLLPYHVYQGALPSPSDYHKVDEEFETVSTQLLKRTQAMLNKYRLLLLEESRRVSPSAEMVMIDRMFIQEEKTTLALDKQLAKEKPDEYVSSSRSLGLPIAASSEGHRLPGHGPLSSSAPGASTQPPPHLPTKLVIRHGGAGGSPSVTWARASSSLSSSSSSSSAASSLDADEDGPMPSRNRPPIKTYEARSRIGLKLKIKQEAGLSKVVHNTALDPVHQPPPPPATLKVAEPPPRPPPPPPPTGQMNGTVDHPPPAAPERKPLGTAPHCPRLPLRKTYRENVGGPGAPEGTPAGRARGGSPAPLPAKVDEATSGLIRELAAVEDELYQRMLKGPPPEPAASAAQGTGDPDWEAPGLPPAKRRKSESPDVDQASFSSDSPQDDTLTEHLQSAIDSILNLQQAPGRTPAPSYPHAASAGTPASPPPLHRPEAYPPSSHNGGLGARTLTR

Biological target: Bromodomain-containing protein 9 (BRD9), wild type (human) (UniProt Q9H8M2)
Assay: co-IP

binding: binds
Substance: GLTSCR1 (from UniProt Q9NZM4 1-1560)
